Test results published in publication PMC10627786.
No constants are given. Whether binding was seen depends on the method and setting. In cells and extracts the contact can be indirect. These calls come from enrichment with a bait or labelling near it, and not all partners need be listed. Tags and fused reporters may be left off the sequences shown.

By UniProt entry, the sequences of proteins in these tests, tags left out.
UniProt Q14318: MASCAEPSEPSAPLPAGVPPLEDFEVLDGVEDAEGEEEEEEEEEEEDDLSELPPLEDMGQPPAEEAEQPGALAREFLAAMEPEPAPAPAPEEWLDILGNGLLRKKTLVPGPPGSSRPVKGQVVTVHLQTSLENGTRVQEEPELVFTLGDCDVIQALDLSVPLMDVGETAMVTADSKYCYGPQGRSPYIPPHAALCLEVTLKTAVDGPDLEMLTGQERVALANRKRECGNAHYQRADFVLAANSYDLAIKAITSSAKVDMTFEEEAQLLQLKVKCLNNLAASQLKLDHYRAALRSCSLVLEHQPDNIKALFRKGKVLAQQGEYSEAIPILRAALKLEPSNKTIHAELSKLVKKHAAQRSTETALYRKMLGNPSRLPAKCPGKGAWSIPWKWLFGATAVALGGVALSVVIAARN
UniProt P51648: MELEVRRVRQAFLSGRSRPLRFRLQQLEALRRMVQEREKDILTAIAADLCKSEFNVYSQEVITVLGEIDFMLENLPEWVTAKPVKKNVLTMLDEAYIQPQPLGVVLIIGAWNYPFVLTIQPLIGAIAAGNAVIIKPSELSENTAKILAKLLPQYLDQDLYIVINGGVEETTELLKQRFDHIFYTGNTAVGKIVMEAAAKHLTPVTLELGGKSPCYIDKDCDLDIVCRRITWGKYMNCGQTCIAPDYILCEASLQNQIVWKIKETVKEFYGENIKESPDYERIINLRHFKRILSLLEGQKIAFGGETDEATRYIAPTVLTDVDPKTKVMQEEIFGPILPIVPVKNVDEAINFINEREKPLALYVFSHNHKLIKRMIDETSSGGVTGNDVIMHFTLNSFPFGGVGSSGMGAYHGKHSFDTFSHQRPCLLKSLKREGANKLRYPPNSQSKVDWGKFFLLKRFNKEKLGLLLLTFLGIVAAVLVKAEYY

Columns and labels:
[1] = target: T1, ESYT2 fused with BirA*-FLAG (BioID bait) (human) (UniProt A0FGR8); test: proximity labelling; BioID in stable inducible Flp-In T-REx 293 cells expressing BirA*-FLAG baits; mass spectrometry of biotinylated preys; SAINTexpress, two biological replicates per bait, 50 negative control runs, BFDR threshold 1%
T1 sequence: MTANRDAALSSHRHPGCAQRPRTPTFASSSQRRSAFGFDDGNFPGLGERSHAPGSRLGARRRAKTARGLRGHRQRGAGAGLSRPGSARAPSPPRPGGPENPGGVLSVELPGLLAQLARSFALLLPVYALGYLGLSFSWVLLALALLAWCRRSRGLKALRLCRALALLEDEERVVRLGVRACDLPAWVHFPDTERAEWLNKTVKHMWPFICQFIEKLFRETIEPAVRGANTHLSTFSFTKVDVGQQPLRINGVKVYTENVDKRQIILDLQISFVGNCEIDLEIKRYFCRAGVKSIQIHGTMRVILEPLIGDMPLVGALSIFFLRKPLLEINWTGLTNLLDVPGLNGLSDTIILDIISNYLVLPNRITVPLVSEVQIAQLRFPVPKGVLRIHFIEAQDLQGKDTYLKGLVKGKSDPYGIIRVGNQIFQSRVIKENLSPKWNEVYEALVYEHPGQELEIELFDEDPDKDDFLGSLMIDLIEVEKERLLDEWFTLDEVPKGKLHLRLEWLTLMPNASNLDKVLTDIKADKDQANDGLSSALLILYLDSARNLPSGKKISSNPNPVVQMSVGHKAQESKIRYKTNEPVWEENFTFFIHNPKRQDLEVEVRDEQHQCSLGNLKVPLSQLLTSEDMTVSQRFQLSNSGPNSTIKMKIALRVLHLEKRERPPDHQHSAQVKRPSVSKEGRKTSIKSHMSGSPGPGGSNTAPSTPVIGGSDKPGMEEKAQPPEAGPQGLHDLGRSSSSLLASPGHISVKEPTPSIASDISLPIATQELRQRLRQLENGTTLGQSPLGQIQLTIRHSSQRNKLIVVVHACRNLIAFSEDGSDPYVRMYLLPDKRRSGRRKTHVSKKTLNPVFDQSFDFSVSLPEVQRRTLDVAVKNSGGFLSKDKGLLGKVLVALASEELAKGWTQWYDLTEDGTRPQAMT

[2] = target: T2, TEX2 fused with BirA*-FLAG (BioID bait) (human) (UniProt Q8IWB9); test: as above
T2 sequence: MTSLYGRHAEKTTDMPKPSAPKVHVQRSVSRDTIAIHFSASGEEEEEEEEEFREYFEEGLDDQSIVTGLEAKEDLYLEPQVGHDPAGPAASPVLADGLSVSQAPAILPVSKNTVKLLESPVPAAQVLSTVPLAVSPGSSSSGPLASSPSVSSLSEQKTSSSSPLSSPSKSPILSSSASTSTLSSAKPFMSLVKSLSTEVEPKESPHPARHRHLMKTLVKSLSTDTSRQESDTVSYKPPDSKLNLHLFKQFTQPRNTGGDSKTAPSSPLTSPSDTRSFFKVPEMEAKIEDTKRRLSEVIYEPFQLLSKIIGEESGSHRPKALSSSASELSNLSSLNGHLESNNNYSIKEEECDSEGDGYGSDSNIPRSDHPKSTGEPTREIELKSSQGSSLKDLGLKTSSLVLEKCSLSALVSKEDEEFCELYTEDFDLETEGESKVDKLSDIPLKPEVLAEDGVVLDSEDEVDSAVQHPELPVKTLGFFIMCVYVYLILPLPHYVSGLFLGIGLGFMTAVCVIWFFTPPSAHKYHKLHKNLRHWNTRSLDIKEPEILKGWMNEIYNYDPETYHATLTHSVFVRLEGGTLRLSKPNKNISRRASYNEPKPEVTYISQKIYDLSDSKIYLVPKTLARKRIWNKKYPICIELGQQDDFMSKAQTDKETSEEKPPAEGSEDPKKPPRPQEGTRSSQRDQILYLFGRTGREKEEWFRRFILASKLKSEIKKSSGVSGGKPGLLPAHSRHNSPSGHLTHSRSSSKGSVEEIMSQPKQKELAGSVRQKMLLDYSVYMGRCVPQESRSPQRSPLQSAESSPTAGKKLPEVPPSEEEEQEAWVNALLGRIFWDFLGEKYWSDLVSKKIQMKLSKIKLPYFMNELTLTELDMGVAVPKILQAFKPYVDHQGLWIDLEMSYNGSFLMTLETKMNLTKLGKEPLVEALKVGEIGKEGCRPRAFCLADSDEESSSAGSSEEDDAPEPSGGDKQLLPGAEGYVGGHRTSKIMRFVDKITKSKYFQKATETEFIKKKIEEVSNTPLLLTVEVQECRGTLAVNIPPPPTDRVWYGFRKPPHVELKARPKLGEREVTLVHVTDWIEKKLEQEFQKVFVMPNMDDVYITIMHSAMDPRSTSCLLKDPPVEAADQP

Row | Substance | binding [1] | binding [2]
1 | FKBP8 (from UniProt Q14318 1-412) | binds | binds
2 | ALDH3A2 (from UniProt P51648 1-485) | binds | binds
